This test deals with M. mycetomatis strain mm55. The note with it: primary screen, metabolic activity vs growth control, 96 h, 2 µM, inhibitor.

Data on 14 molecules can be found in paper PMC12670160, “A drug-repurposing screen of FDA- and EMA-approved drugs identifies two NF-κB inhibitors active against eumycetoma” (Journal of Antimicrobial Chemotherapy, 2025).

Structures can show the parent of a compound that is named as a salt. Where two headings read alike, the source gives them in different places. The whole screen tested about 5,300 compounds, of which about 130 (2.5%) showed an effect of 50% or more. Some of the results follow. Numbered stars: 1 amine (or outer) side, 2 acyl side, 3 side chain; on linkers, the order of the positions; unused ones are H or OH. Bridge positions count the residues as written; N and C are the ends. Square brackets hold non-standard residues; d marks the D form. Peptide text beside a SMILES is read from it. I, II: the chains in the order shown. Actinocin(9to1) = Cc1c2oc3c(C)ccc(C(=O)[*:1])c3nc-2c(C(=O)[*:2])c(N)c1=O; NMeV = CN[C@H](C(=O)O)C(C)C; Sar = CNCC(=O)O

On to `c1cnc2cc3c(cc2n1)C1CNCC3C1` [ONC0004813, varenicline tartrate], for which the “% viability” value came out at 83.4%. `NC[C@H]1O[C@H](O[C@H]2[C@H](O)[C@@H](O[C@H]3O[C@H](CO)[C@@H](O)[C@H](N)[C@H]3O)[C@H](N)C[C@@H]2N)[C@H](O)[C@@H](O)[C@@H]1O` [ONC0000609, kanamycin a sulfate]: the “% viability” value was 72.35%.

As for `C[C@H](Oc1ccc(S(C)(=O)=O)cc1C(=O)N1CCN(c2ncc(C(F)(F)F)cc2F)CC1)C(F)(F)F` [ONC0002052, bitopertin], the “% viability” value turned out to be 75.15%. Take `O=c1cc(-c2ccccc2)oc2cc(O)cc(O)c12` [ONC0005085, chrysin]: the “% viability” value is on record as 86.86%.

Consider `COc1ccc2c(c1)c(C1=C(c3c[nH]c4ccccc34)C(=O)NC1=O)cn2CCCN(C)C` [ONC0004541, go 6983], for which the “% viability” value stood at 67.37%.

With `Oc1cc(O)cc(O)c1` [ONC0003870, phloroglucin], the “% viability” value turned out to be 78.3%. Take `Cc1c2oc3c(C)ccc(C(=O)N[C@@H]4C(=O)N[C@H](C(C)C)C(=O)N5CCC[C@H]5C(=O)N(C)CC(=O)N(C)[C@@H](C(C)C)C(=O)O[C@@H]4C)c3nc-2c(C(=O)N[C@@H]2C(=O)N[C@H](C(C)C)C(=O)N3CCC[C@H]3C(=O)N(C)CC(=O)N(C)[C@@H](C(C)C)C(=O)O[C@@H]2C)c(N)c1=O` [ONC0003335, dactinomycin] (I: T[dV]P[Sar][NMeV] / II: T[dV]P[Sar][NMeV]; ester I:1-I:C, II:1-II:C; linker I:N-II:N via Actinocin(9to1)): under “Madurella mycetomatis metabolic activity at 2µM (%)”, the “% viability” value is on record as 81.45%. On to `O=c1sn(-c2cccc3ccccc23)c(=O)n1Cc1ccccc1` [ONC0005020, tideglusib], for which the “% viability” value was 111.3%. Turning to `Cc1noc(-c2ccc(-c3ccc(CC(=O)O)cc3)cc2)c1NC(=O)O[C@H](C)c1ccccc1` [ONC0002098, am095], the “% viability” value was 63.96%.

In the case of `Nc1c2c(nc3ccccc13)CCCC2` [ONC0005283, tacrine hydrochloride], the “% viability” value amounted to 70.06%. On the same count and under the same terms, with `Cn1cc(C[C@@H](N)C(=O)O)c2ccccc21` [ONC0003940, indoximod] the figure was 84.46%; with `C/C(=C(\CCOP(=O)(O)O)SC(=O)c1ccccc1)N(C=O)Cc1cnc(C)nc1N` [ONC0002833, benfotiamine], 112.3%. Same read-out and setting: the same measure for `CC(C)=CCC/C(C)=C/CC/C(C)=C/CCC(O)OC/C=C(\C)CCC=C(C)C` (centres unmarked) [ONC0000430, geranylfarnesylacetate gefarnate]: 66.04%; for `CC(C)(C)C(=O)OCC(=O)[C@H]1CC[C@H]2[C@@H]3CCC4=CC(=O)CC[C@]4(C)[C@H]3CC[C@]12C` [ONC0002988, desoxycorticosteronepivalate]: 86.89%.
